According to PubChem BioAssay AID504834 (National Center for Advancing Translational Sciences (NCATS), 2011):
Among all 320,000 compounds or so, about 22,000 (6.9%) were called active. This list was built around the results that the source calls inconclusive (neither active nor inactive); the mix of calls is not that of the screen. Calls follow the shape of the dose curve; as a rule, active = well fitted inhibition curve with a large enough effect; inconclusive = small, poorly fitted or top-dose-only effect, or another doubt; inactive = no such curve, though single readings can be large or run the other way. Potencies beside an inconclusive call are fits to weak or partial responses and may not hold up.

Assay: Primary qHTS for delayed death inhibitors of the malarial parasite plastid, 96 hour incubation
Conditions: P. falciparum luciferase reporter growth; series mostly up to 28.7 µM; activity change, negative = inhibition: at the top concentration
Summary of the method: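 Two-generation exposure (96 h) targets delayed-death phenotype. Reporter parasites carrying integrated firefly luciferase, in red cells at 2% hematocrit and 0.05% parasitemia final, kept at 37 C, 5% CO2; luminescence loss indicates inhibition.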
% is scaled to controls: 0 for no effect and ±100 for the full control effect; potency is read from the fitted curve at half-maximal effect.

Question: With `CCCCCC(=O)NC(=S)Nc1ccc(N2CCCCC2)c(Cl)c1` as the molecule, how does the Potency read?
Answer: inconclusive: 13.1 µM [inhibitor, single point]

Question: Which “activity change, negative = inhibition” value does the source give for `CCCCCCn1nc(C(=O)OCC(=O)NC2CCS(=O)(=O)C2)c2ccccc2c1=O` (stereo unspecified) here?
Answer: inactive: 5.09%

Question: With `COc1ccc(/C=C2/C(=O)NC(=O)N(Cc3ccco3)C2=O)cc1` as the molecule, how does the “activity change, negative = inhibition” value read?
Answer: inactive: 0%

Question: With `CCN(c1ccccc1)S(=O)(=O)c1ccc(Cl)nc1` as the molecule, how does the Potency read?
Answer: inconclusive: 1.85 µM [inhibitor, single point]

Question: With `Cc1nc2cc(NCc3cccs3)ccc2n1C` as the molecule, how does the Potency read?
Answer: inconclusive: 18.5 µM [inhibitor, single point]

Question: Which Potency does the source give for `O=C(OC1CCCCC1=O)c1cc(S(=O)(=O)N2CCOCC2)ccc1F` (stereo unspecified) here?
Answer: inconclusive: 4.15 µM [inhibitor, single point]

Question: Which “activity change, negative = inhibition” value does the source give for `Cc1[nH]c2ccccc2c1Cc1nnc(SCCC#N)o1` here?
Answer: inactive: -8.64%

Question: Which “activity change, negative = inhibition” value does the source give for `O=C1NNC(=O)C1c1ccccc1` here?
Answer: inactive: 10.9%

Question: Which Potency does the source give for `COc1ccc(C2N(c3ccc(Cl)cc3)C(=O)C3CCCN32)cc1` (stereo unspecified) here?
Answer: inconclusive: 18.5 µM [inhibitor, single point]

Question: For `S=C(Nc1ccc(Cl)cc1)c1nc2ccccc2[nH]1`, which Potency is on record?
Answer: inconclusive: 18.5 µM [inhibitor, single point]

Question: With `Cc1ccc(C(=O)Nc2cccc(NC(=O)CN3CCCCC3)c2)cc1` as the molecule, how does the “activity change, negative = inhibition” value read?
Answer: inactive: 1.01%

Question: For `Cc1ccc(/C=C/C(=O)O)cc1S(=O)(=O)Nc1ccccc1C(=O)O`, which Potency is on record?
Answer: active: 10.4 µM

Question: Which Potency does the source give for `CC(C)CC(=O)O/N=C1\C(=O)N(Cc2ccc(Cl)cc2)c2ccc([N+](=O)[O-])cc21` here?
Answer: active: 5.22 µM

Question: With `CC(C(=O)NCC1CCCO1)c1ccc([N+](=O)[O-])cc1` (stereo unspecified) as the molecule, how does the “activity change, negative = inhibition” value read?
Answer: inactive: 15.2%

Question: Which “activity change, negative = inhibition” value does the source give for `Cc1ccn2c(CNCc3cnn(C)c3)c(C(=O)N3CCCCCC3)nc2c1` here?
Answer: inactive: 88.8%

Question: With `COCCn1c(SCC(=O)N2CCc3ccccc32)nc2c(c1=O)SC(C)C2` (stereo unspecified) as the molecule, how does the Potency read?
Answer: inconclusive: 11.7 µM [inhibitor, partial curve, poor fit]

Question: For `O=C1NC(c2ccccc2)=C(c2ccc3ccccc3n2)C(c2ccc(F)cc2)N1` (stereo unspecified), which Potency is on record?
Answer: active: 4.15 µM

Question: Which “activity change, negative = inhibition” value does the source give for `COc1ccc(/C=N/NC(=O)c2ccoc2C)cc1OC` here?
Answer: inactive: 13.8%

Question: For `O=C(Nc1ccc2ncccc2c1)c1ccccc1`, which Potency is on record?
Answer: inconclusive: 3.7 µM [inhibitor, partial curve, poor fit]

Question: For `CNC(=O)CSc1nc(-c2ccccc2)c(-c2ccccc2)o1`, which Potency is on record?
Answer: inconclusive: 10.4 µM [inhibitor, single point]

Question: Which Potency does the source give for `COc1ccc(OCC#CCN2CC(C)OC(C)C2)cc1` (stereo unspecified) here?
Answer: inconclusive: 18.5 µM [inhibitor, single point]

Question: Which “activity change, negative = inhibition” value does the source give for `CCOC(=O)C1=C(CS(=O)(=O)c2ccccc2)NC(=O)NC1c1ccc(OC)c(OC)c1` (stereo unspecified) here?
Answer: inactive: 16.8%

Question: Which Potency does the source give for `O=C(Nc1cc(-c2ccccc2)nn1-c1ccccc1)c1ccccc1F` here?
Answer: inconclusive: 18.5 µM [inhibitor, single point]

Question: With `O=C(COC(=O)c1nc(Cl)ccc1Cl)Nc1ccc(Cl)cn1` as the molecule, how does the “activity change, negative = inhibition” value read?
Answer: inactive: -17.2%

Question: For `O=C(Cc1nc(-c2cnccn2)no1)NNC(=O)Nc1ccccc1`, which Potency is on record?
Answer: inconclusive: 20.8 µM [inhibitor, partial curve, poor fit]

Question: For `COCCn1cc(C(=O)N2CCC(C)CC2)c2c3ccccc3n(C)c2c1=O`, which Potency is on record?
Answer: inconclusive: 11.7 µM [inhibitor, single point]

Question: Which Potency does the source give for `CCC(=O)N1CCN(c2nc(C)nc3sc(C)c(C)c23)CC1` here?
Answer: inconclusive: 18.5 µM [inhibitor, single point]

Question: Which “activity change, negative = inhibition” value does the source give for `O=C(COC(=O)c1ccccc1Oc1ccccc1)NCc1ccco1` here?
Answer: inactive: -5.48%

Question: With `CCOc1cc2c(cc1OCC)-n1cccc1C(c1ccc(F)c(OC)c1)NC2` (stereo unspecified) as the molecule, how does the “activity change, negative = inhibition” value read?
Answer: inactive: -0.677%

Question: Which Potency does the source give for `O=C(C(=O)N1CCN(c2cccc(Cl)c2)CC1)c1c[nH]c2ccccc12` here?
Answer: inconclusive: 4.15 µM [inhibitor, single point]

Question: Which “activity change, negative = inhibition” value does the source give for `CCOc1ccc(N(CC(=O)NC2CCCCC2)C(=O)CCC(=O)Nc2cc(C)ccn2)cc1` here?
Answer: inactive: 26.9%

Question: Which Potency does the source give for `CCN1C(=O)[C@@H]2[C@@H](c3ccc(-c4ccc(Cl)c(Cl)c4)c(OC)c3)N3CCC[C@@]3(C(=O)OC)[C@@H]2C1=O` here?
Answer: active: 0.828 µM

Question: With `Cc1ccc(S(=O)(=O)CCc2nc3ccccc3s2)cc1` as the molecule, how does the Potency read?
Answer: inconclusive: 1.17 µM [inhibitor, partial curve, poor fit]

Question: For `Cn1cc(Br)c(C(=O)N2CCN(c3cccc(Cl)c3)CC2)n1`, which Potency is on record?
Answer: inconclusive: 18.5 µM [inhibitor, single point]

Question: For `CSc1nc2cc3c(cc2n1C(=O)c1ccc(C)cc1)OCCO3`, which “activity change, negative = inhibition” value is on record?
Answer: inactive: 96.8%

Question: Which “activity change, negative = inhibition” value does the source give for `C/C(=N\NC(=O)c1ccco1)c1cccc2ccccc12` here?
Answer: inactive: -20.9%

Question: Which “activity change, negative = inhibition” value does the source give for `O=C(CN(c1cccc(C(F)(F)F)c1)S(=O)(=O)c1ccccc1)N1CCOCC1` here?
Answer: inactive: -0.479%

Question: For `CCCOc1ccc(/C=C/C(=O)OCC(=O)N(C)c2c(N)n(Cc3ccccc3)c(=O)[nH]c2=O)cc1OCC`, which Potency is on record?
Answer: inconclusive: 10.4 µM [inhibitor, single point]

Question: For `CCCOc1ncnc2c1sc1nc3c(cc12)COC(C)(C)C3`, which “activity change, negative = inhibition” value is on record?
Answer: inactive: 38.7%

Question: For `COc1cccc(-n2c(SCC(=O)N3CCc4ccccc43)nnc2-c2c[nH]c3ccccc23)c1`, which Potency is on record?
Answer: inconclusive: 1.17 µM [inhibitor, partial curve, poor fit]

Question: Which Potency does the source give for `COc1ccccc1CNC(=O)CN1CCN(c2ccc(C(C)=O)cc2)CC1` here?
Answer: inconclusive: 2.62 µM [inhibitor, single point]

Question: For `Cc1ccc(C(=O)Nc2nc3ccccc3[nH]2)cc1`, which “activity change, negative = inhibition” value is on record?
Answer: inactive: -39.4%

Question: Which Potency does the source give for `CC(=O)N1CCN(S(=O)(=O)c2cccc(C(=O)Nc3ccccc3N3CCOCC3)c2)CC1` here?
Answer: inconclusive: 18.5 µM [inhibitor, single point]

Question: For `CCCOc1ccc(N2C(=O)CC(N3CCN(CCN=CC4C(=O)CC(C)(C)CC4=O)CC3)C2=O)cc1` (stereo unspecified), which Potency is on record?
Answer: inconclusive: 3.29 µM [inhibitor, full curve]

Question: For `Cc1ccc(S(=O)(=O)c2nc(S(C)(=O)=O)sc2N2CCN(C)CC2)cc1`, which Potency is on record?
Answer: inconclusive: 13.1 µM [inhibitor, partial curve]

Question: With `O=C(Nc1ccccc1)C12CC3CC(C1)CC(n1cnc([N+](=O)[O-])n1)(C3)C2` as the molecule, how does the Potency read?
Answer: inconclusive: 0.0037 µM [inhibitor, full curve, poor fit]

Question: With `CCCCN(CC)CCCNC(=O)c1csc2c1CCCCC2` as the molecule, how does the Potency read?
Answer: inconclusive: 9.28 µM [inhibitor, single point]

Question: For `CCOC(=O)C1=C(O)/C(=C/c2ccc(OCC(=O)O)c(OC)c2)SC1=Nc1ccc(OC)cc1`, which Potency is on record?
Answer: inconclusive: 16.5 µM [inhibitor, single point]

Question: Which Potency does the source give for `O=C(Nc1ccc(Cl)c(S(=O)(=O)N2CCOCC2)c1)c1ccc(OCC2CCCO2)cc1` (stereo unspecified) here?
Answer: active: 4.15 µM

Question: Which “activity change, negative = inhibition” value does the source give for `CC(C)(C)c1ccc(OCC(O)CSc2ncn[nH]2)cc1` (stereo unspecified) here?
Answer: inactive: 10.8%

Question: For `CCOC(=O)C(Cc1c[nH]c2ccccc12)NC(=O)CNC(C)=O` (stereo unspecified), which Potency is on record?
Answer: inconclusive: 10.4 µM [inhibitor, single point]

Question: Which Potency does the source give for `COc1cccc(CNC(=O)C2CCCN(S(=O)(=O)N3CC(C)CC(C)C3)C2)c1` (stereo unspecified) here?
Answer: inconclusive: 14.7 µM [inhibitor, partial curve]

Question: Which Potency does the source give for `COc1ccc(-n2nnnc2CNC(=O)c2ccc(S(=O)(=O)N3CCOCC3)cc2)cc1` here?
Answer: inconclusive: 10.4 µM [inhibitor, single point]

Question: Which Potency does the source give for `Cc1ccccc1S(=O)(=O)Cc1ccc(C(=O)NCc2ccccc2)o1` here?
Answer: inconclusive: 18.5 µM [inhibitor, single point]

Question: With `CCOC(=O)C1CCN(CCC(=O)Nc2ccccc2Cl)CC1` as the molecule, how does the Potency read?
Answer: inconclusive: 10.4 µM [inhibitor, partial curve]

Question: Which Potency does the source give for `Cc1nc2cc3sc(C)nc3cc2s1` here?
Answer: inconclusive: 13.1 µM [inhibitor, single point]

Question: For `O=C1NC(c2ccc(Cl)c([N+](=O)[O-])c2)Nc2ccccc21` (stereo unspecified), which Potency is on record?
Answer: inconclusive: 18.5 µM [inhibitor, single point]

Question: For `Cn1c(CCC(=O)Nc2cc(S(C)(=O)=O)ccc2Cl)nc2cc(S(=O)(=O)N3CCOCC3)ccc21`, which “activity change, negative = inhibition” value is on record?
Answer: inactive: -3.96%

Question: Which Potency does the source give for `CC1=C2[C@@H]3OC(=O)[C@H](C)C3CC[C@@]2(C)C=CC1=O` (stereo partly specified) here?
Answer: inconclusive: 7.38 µM [inhibitor, partial curve, poor fit]

Question: For `COc1cc(OC)c(C2=NOC(C(=O)N3CCc4ccccc4C3)C2)cc1Cl` (stereo unspecified), which Potency is on record?
Answer: inconclusive: 9.28 µM [inhibitor, single point]

Question: For `CC(Nc1nc(-c2ccc3c(c2)NC(=O)CO3)cs1)c1ccccc1` (stereo unspecified), which Potency is on record?
Answer: inconclusive: 18.5 µM [inhibitor, single point]

Question: Which Potency does the source give for `Cc1oc2c(O)c(O)ccc2c(=O)c1-c1ccccc1` here?
Answer: inconclusive: 10.4 µM [inhibitor, single point]

Question: Which “activity change, negative = inhibition” value does the source give for `COc1cc(OC)cc(C(=O)OCc2ccc([N+](=O)[O-])cc2)c1` here?
Answer: inactive: 44%

Question: Which Potency does the source give for `O=C(CCN1CCCCCC1)Nc1cccc(Cl)c1` here?
Answer: active: 2.08 µM

Question: For `CC1CC(=O)N(CC(=O)NC2CCCCC2)c2ccccc2S1` (stereo unspecified), which Potency is on record?
Answer: inconclusive: 4.15 µM [inhibitor, single point]

Question: Which Potency does the source give for `O=C(CN(Cc1ccco1)C(=O)c1cccc(F)c1)Nc1ccccc1C(F)(F)F` here?
Answer: inconclusive: 7.38 µM [inhibitor, partial curve, poor fit]

Question: Which Potency does the source give for `O=C(CCCC1=NS(=O)(=O)c2ccccc2N1)Nc1ccccc1` here?
Answer: inconclusive: 10.4 µM [inhibitor, partial curve, poor fit]

Question: With `CCOc1ccccc1Nc1nnc(SCC(=O)Nc2nc(-c3ccc(OC)cc3)cs2)s1` as the molecule, how does the Potency read?
Answer: inconclusive: 2.33 µM [inhibitor, full curve]

Question: For `N#C/C(=C\c1ccc2c(c1)OCCO2)C(=O)NC1CCCCC1`, which “activity change, negative = inhibition” value is on record?
Answer: inactive: -15.9%

Question: With `O=S(=O)(NC1CC2CCC1C2)c1ccc(Br)cc1` (stereo unspecified) as the molecule, how does the Potency read?
Answer: inconclusive: 0.0041 µM [inhibitor, full curve, poor fit]

Question: Which Potency does the source give for `Cc1ccc(-c2cc(=O)c3cc(F)ccc3[nH]2)cc1` here?
Answer: active: 10.4 µM
